Source: PubChem BioAssay AID1347076 (National Center for Advancing Translational Sciences (NCATS), 2019)
Values joined by “and” are separate entries in the source; they are usually repeats but may differ in a detail not shown here. Identical values can stand only once. In all, about 400,000 compounds went through this assay and about 13,000 (3.2%) were called active. This list was built around the results that the source calls inconclusive (neither active nor inactive); the mix of calls is not that of the screen. The call rests on the fitted dose curve; in most records, active means well fitted cell-killing curve with a large enough effect; inconclusive means small, poorly fitted or top-dose-only effect, or effect the other way; inactive means flat fitted curve, though single readings scatter. Potencies beside an inconclusive call are fits to weak or partial responses and may not hold up.

assay: qHTS assay for MDR1-selective chemotherapeutics: Primary screen using the drug-selected MDR subline cells KB-V1; settings: KB-V1 MDR cells viability, CellTiter-Glo, 72 h; series mostly up to 46.1 µM; further: nearly all actives have a fitted effect of over 60% in size
Method in brief: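 Compound-treated KB-V1 multidrug-resistant cells, 72 h, 37 degrees C; viability by CellTiter-Glo. Fitted qHTS curves give the values.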
Potency means the concentration at half of the fitted maximal effect.

SMILES	Potency
O=C(Nc1ccc(F)cc1)c1ccccc1NC(=O)C1CC=CCC1C(=O)O (stereo unspecified)	inconclusive: 10.3 µM [rising, partial curve, poor fit]
O=C(Nc1nnc(-c2cccnc2)o1)c1ccccc1Cl	inactive
CN(Cc1cccc(F)c1)C(=O)c1ccc(NS(=O)(=O)c2ccc3[nH]c(=O)[nH]c3c2)cc1	inactive
CN(CC(=O)Nc1ccc(F)cc1)C(=O)CCc1nc2ccccc2c(=O)[nH]1	inconclusive: 29.1 µM [cytotoxic, single point]
O=c1cc(O)c2c(=O)n(-c3ccccc3)c3ccccc3c2o1	inconclusive: 29.1 µM [cytotoxic, single point]
COC(=O)C1Cc2ccccc2CN1S(=O)(=O)c1ccc(C)cc1 (stereo unspecified)	inconclusive: 13 µM [cytotoxic, partial curve]
c1ccc(CNCCCNCCCCNCCCNCc2ccccc2)cc1	inconclusive: 29.1 µM [rising, single point]
O=c1c2ccccc2oc2ncccc12	inconclusive: 29.1 µM [rising, single point]
CC(=O)c1cccc(NC(=O)/C=C/c2ccc([N+](=O)[O-])s2)c1	active: 20.6 µM
O=C(O)C1Cc2ccccc2CN1C(=O)CCl (stereo unspecified)	inconclusive: 29.1 µM [cytotoxic, single point]
O=[N+]([O-])c1cc(/C=N/O)ccc1Oc1cccc(Cl)c1	inactive
CCOc1ccccc1NC(=S)NC1CCCCC1	active: 23.1 µM
Cc1ccc(-c2csc3nnc(SCC(=O)Nc4cccc(C)n4)n23)cc1	active: 7.31 µM
Cc1ccc(S(=O)(=O)Cc2ccc(C(=O)N3CCN(c4cccc(C)c4C)CC3)o2)cc1	active: 2.91 µM and inconclusive: 29.1 µM [cytotoxic, single point]
O=c1c2ccccc2nc2c3ccccc3c3nncn3n12	active: 7.31 µM
CCOC(=O)c1[nH]c2ccccc2c1NC(=O)c1ccc2c(c1)OCO2	inactive
CCOC(=O)C1CCN(CCC(=O)Nc2ccc(Cl)cc2)CC1	inconclusive: 20.6 µM [cytotoxic, single point]
O=[N+]([O-])c1cc(-c2nc(-c3ccccc3)no2)ccc1N1CCCCC1	inactive
CN(C)P(=NC(=O)COc1ccc(Cl)cc1Cl)(N(C)C)N(C)C	inconclusive: 7.31 µM [cytotoxic, partial curve, poor fit]
O=C(COC(=O)Cc1ccc(F)cc1)NC(=O)NC1CCCC1	inconclusive: 29.1 µM [cytotoxic, single point]
COc1ccc(OC)c(C2=Nn3c(nnc3-c3ccco3)SC2)c1	inconclusive: 16.4 µM [cytotoxic, partial curve]
